This test relates to HEK293A TEAD-LUC reporter. Kind of test: TEAD-luciferase reporter activity (YAP activation), robust Z score vs plate; higher = stronger YAP/TEAD activation. To be noted: 24 h. On the technique in general: In a reporter assay the amount or activity of a reporter protein is the signal.

The structures appear in SMILES notation. Structures can show the parent of a compound that is named as a salt. This is one part of the list. This data set is noisy: repeats of one test often differ as much as different tests do.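 The human kidney-derived cells carry a stably integrated construct of eight TEAD-binding elements driving luciferase, read by luminescence in a drug-repurposing library screen. A compound counts as a hit when its signal is more than five robust Z scores above the plate mean.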

On to `COC(=O)Nc1ccc2oc3cc(S(=O)(=O)N[C@H](C(=O)O)C(C)C)ccc3c2c1`, for which the TEAD-luciferase reporter activity was inactive: -2.01 (compound concentration: 200 nM), inactive: 1.34 (compound concentration: 2 uM) and inactive: 0.95 (compound concentration: 10 uM).
Take `CC(=O)NC(CO)C(=O)NC(CC(=O)O)C(=O)NC(CCCCN)C(=O)N1CCCC1C(=O)O` (stereo unspecified) [Goralatide]: the TEAD-luciferase reporter activity was inactive: -0.848 (compound concentration: 200 nM), inactive: -0.223 (compound concentration: 2 uM) and inactive: 0.188 (compound concentration: 10 uM).
With `CCN1CCC[C@H]1CNC(=O)c1c(O)c(Cl)cc(Cl)c1OC`, the TEAD-luciferase reporter activity (compound concentration: 200 nM) is inactive: -2.65 and the TEAD-luciferase reporter activity (compound concentration: 10 uM) is inactive: -0.00342.
In the case of `CCN1CCC[C@H]1CNC(=O)c1c(O)c(Cl)cc(Cl)c1OC` [Raclopride], under “compound concentration: 2 uM”, the TEAD-luciferase reporter activity was inactive: -0.268.
As for `CC(C)(O)[C@@H]1CC=C(CCO)[C@@H](O)C1`, the TEAD-luciferase reporter activity by setting is: (compound concentration: 200 nM) inactive: -0.165; (compound concentration: 2 uM) inactive: -0.35; (compound concentration: 10 uM) inactive: 3.37.
In the same order, the values of `CN(CC1=C(C(=O)O)N2C(=O)[C@@H](NC(=O)/C(=N/OC(C)(C)C(=O)O)c3csc(N)n3)[C@H]2SC1)Cc1cc(=O)c(O)cn1O` are inactive: 0.457, active: 5.42 and inactive: -0.93.
As for `COC[C@H](C)Oc1cc(Oc2cnc(C(=O)N3CCC3)cn2)cc(C(=O)Nc2cnc(C)cn2)c1`, the TEAD-luciferase reporter activity is, setting by setting: (compound concentration: 200 nM) inactive: -2.52; (compound concentration: 2 uM) inactive: -1.2; (compound concentration: 10 uM) inactive: -0.649.
Take `c1ccc(-c2noc(-c3ccccc3OC3CNC3)n2)cc1`: the TEAD-luciferase reporter activity by setting is: (compound concentration: 200 nM) inactive: -0.159; (compound concentration: 2 uM) inactive: 1.33; (compound concentration: 10 uM) active: 6.58.
In the same order, the values of `COCCc1ccc(-c2c(C)nc3c(N4CCOCC4)ccnn23)cn1` are inactive: 0.72, inactive: -0.619 and inactive: 0.634.
As to `CC(C)(C)NCC(O)COc1ccccc1NC(=O)c1ccco1` (stereo unspecified) [ancarolol], the TEAD-luciferase reporter activity is inactive: -1.93 (compound concentration: 200 nM), inactive: 0.761 (compound concentration: 2 uM) and inactive: -0.197 (compound concentration: 10 uM).
Turning to `C[C@@H](OC[C@@]1(c2ccccc2)CC[C@]2(CCC(=O)N2)CN1)c1cc(C(F)(F)F)cc(C(F)(F)F)c1` [Rolapitant hydrochloride], the TEAD-luciferase reporter activity is active: 5.52 (compound concentration: 200 nM), inactive: -1.35 (compound concentration: 2 uM) and inactive: 0.452 (compound concentration: 10 uM).
As to `CCCCCCCCCCCCSC[C@@H](COP(=O)(O)OC[C@H]1O[C@@H](n2cc(C)c(=O)[nH]c2=O)C[C@@H]1F)OCCCCCCCCCC`, the TEAD-luciferase reporter activity runs as follows: (compound concentration: 2 uM) inactive: -1.02; (compound concentration: 10 uM) inactive: -1.52.
Turning to `CCCCCOc1ccc(C(O)(CCN(C)C)C2CCCCC2)cc1` (stereo unspecified), the TEAD-luciferase reporter activity is inactive: -2.73 (compound concentration: 200 nM), inactive: -1.26 (compound concentration: 2 uM) and inactive: 4.29 (compound concentration: 10 uM).
The like results for `COc1c(Nc2ccc(S(C)(=O)=O)nc2C)ncnc1OC1CCN(C(=O)OC(C)C)CC1` were, in that order, inactive: -1.73, inactive: -0.579 and inactive: -0.418.
With `O=C(Cc1ccc(C(F)(F)F)cc1)Nc1ccc2cnn(CCN3CCCC3)c2c1`, the TEAD-luciferase reporter activity is, setting by setting: (compound concentration: 200 nM) inactive: -0.755; (compound concentration: 2 uM) inactive: -1.58; (compound concentration: 10 uM) inactive: -0.355.
The like results for `CCCCCCCC/C=C/CCCCCCCC(=O)OC[C@H]1O[C@@H](n2ccc(N)nc2=O)C(F)(F)[C@@H]1O` [Gemcitabine elaidate] were, in that order, inactive: -2.39, inactive: -2.21 and inactive: 0.752.
Regarding `Cc1ccccc1C(=O)NC1CCN(c2ccc3ncc(-c4cccc(C(F)(F)F)c4)n3n2)CC1`, the TEAD-luciferase reporter activity was inactive: -2.7 (compound concentration: 200 nM) and inactive: -0.691 (compound concentration: 10 uM).
For the compound `CC(C)c1ccc(CC(=O)NC(C)c2ccc(OCC(F)(F)F)cn2)cc1` (stereo unspecified), the TEAD-luciferase reporter activity runs as follows: (compound concentration: 200 nM) inactive: -0.614; (compound concentration: 2 uM) inactive: -1.47; (compound concentration: 10 uM) inactive: -0.797.
Consider `COc1ccc(Cl)cc1[C@@]1(F)C(=O)Nc2cc(C(F)(F)F)ccc21` [Flindokalner], for which the TEAD-luciferase reporter activity (compound concentration: 200 nM) was inactive: -0.677, the TEAD-luciferase reporter activity (compound concentration: 2 uM) was inactive: -0.219 and the TEAD-luciferase reporter activity (compound concentration: 10 uM) was active: 8.78.
For the compound `COc1cc(C2CN=C(c3ccc4c(ccn4C)c3)O2)cc(OC)c1OC` (stereo unspecified), the TEAD-luciferase reporter activity (compound concentration: 200 nM) was inactive: -1.2, the TEAD-luciferase reporter activity (compound concentration: 2 uM) was inactive: 4.25 and the TEAD-luciferase reporter activity (compound concentration: 10 uM) is inactive: 4.79.
Regarding `O=C1O[C@]2(CC[C@H](C(=O)Nc3ccn(-c4ccccc4F)n3)CC2)c2cnccc21` [NPY-Y5 antagonist, Banyu], the TEAD-luciferase reporter activity is, setting by setting: (compound concentration: 200 nM) inactive: 0.0207; (compound concentration: 10 uM) inactive: 3.9.
Turning to `O=C1O[C@]2(CC[C@H](C(=O)Nc3ccn(-c4ccccc4F)n3)CC2)c2cnccc21` [NPY-Y5 antagonist], under “compound concentration: 2 uM”, the TEAD-luciferase reporter activity is inactive: 0.291.
As to `NCCCBr`, the TEAD-luciferase reporter activity is, setting by setting: (compound concentration: 200 nM) inactive: -0.4; (compound concentration: 2 uM) inactive: -1.81; (compound concentration: 10 uM) inactive: -1.22.
For `O=C(O)C[C@H](CC1CCN(C(=O)CCc2ccc3c(n2)NCCC3)CC1)[C@H]1CNc2ccccc2C1`, the TEAD-luciferase reporter activity reads like this: (compound concentration: 200 nM) inactive: -0.818; (compound concentration: 2 uM) inactive: -1.46; (compound concentration: 10 uM) inactive: -1.53.
Take `COc1cccc2c1C(=O)c1c(O)c3c(c(O)c1C2=O)CC(O)(C(C)=O)CC3OC1CC(N)C(O)C(C)O1` (stereo unspecified) [Daunorubicin]: the TEAD-luciferase reporter activity was inactive: -0.532 (compound concentration: 200 nM), inactive: 0.475 (compound concentration: 2 uM) and inactive: 1.99 (compound concentration: 10 uM).
The like results for `O=C(O)Cc1ccc(CC2(CNS(=O)(=O)c3ccc(Cl)cc3)CCCC2)cc1` were, in that order, inactive: -1.03, inactive: -1.9 and inactive: -1.13.
With `CC(C)=CCOc1cc(NC(=O)c2ccsc2)ccc1Cl`, the TEAD-luciferase reporter activity is inactive: -0.921 (compound concentration: 200 nM), inactive: 0.946 (compound concentration: 2 uM) and inactive: -0.471 (compound concentration: 10 uM).
In the same order, the values of `CC(C)n1c(Nc2cccnc2)nc2cnc(Nc3ccc(N4CCN(C)CC4)cc3)nc21` are inactive: -0.446, inactive: -1.54 and inactive: -0.518.

For the origin of these results see the supplement of paper PMC10735217.
